Results taken from US9955692B2, “Pyrazoles for controlling invertebrate pests” (BASF SE, priority 2014, dated 2018).
Some entries share one result that the patent states for a list of compounds. At least one structure is not confirmed: it was looked up by name or label, or the drawing left a doubt.

Tests used:
Format in all cases: in vivo
[1] = system: Orchid thrips (Dichromothrips corbetti); test: Orchid thrips petal dip test; conditions: at 500 ppm; percent mortality recorded after 72 hours
[2] = system: Cowpea aphid (Aphis craccivora); test: Cowpea aphid spray test on potted cowpea plants; conditions: at 500 ppm; population reduction assessed after 24, 72 and 120 hours
Protocol: If not otherwise specified the test solutions were prepared as follows:
The active compound was dissolved at the desired concentration in a mixture of 1:1 (vol:vol) distilled water:aceton. The test solution was prepared at the day of use and in general at concentrations of ppm (wt/vol).
Potted cowpea plants colonized with 100-150 aphids of various stages were sprayed after the pest population had been recorded. Population reduction was assessed after 24, 72, and 120 hours.

[3] = system: Cotton aphid (Aphis gossypii, mixed life stages); test: Cotton aphid spray test on cotton plants; conditions: at 300 ppm; aphid mortality determined after 5 days
Protocol: (§1) The active compounds were formulated in cyclohexanone as a 10,000 ppm solution supplied in 1.3 ml ABgene® tubes. These tubes were inserted into an automated electrostatic sprayer equipped with an atomizing nozzle and they served as stock solutions for which lower dilutions were made in 1:1 (vol:vol) water:aceton. A nonionic surfactant (Kinetic®) was included in the solution at a volume of 0.01% (v/v).
Cotton plants at the cotyledon stage were infested with aphids prior to treatment by placing a heavily infested leaf from the main aphid colony on top of each cotyledon. Aphids were allowed to transfer overnight to accomplish an infestation of 80-100 aphids per plant and the host leaf was removed. The infested plants were then sprayed by an automated electrostatic plant sprayer equipped with an atomizing spray nozzle. The plants were dried in the sprayer fume hood, removed from the sprayer, and then maintained in a growth room under fluorescent lighting in a 24-hr photoperiod at 25° C. and 20-40% relative humidity. Aphid mortality on the treated plants, relative to mortality on untreated control plants, was determined after 5 days.

[4] = system: Diamondback moth (Plutella xylostella); test: Diamondback moth cabbage leaf disk dip test; conditions: at 500 ppm; third instar larvae; mortality assessed after 72 h
[5] = system: Vetch aphid (Megoura viciae); test: Vetch aphid bean leaf disk microtiter plate test; conditions: at 2500 ppm; 6 days; assessed on the basis of vital, reproduced aphids
Protocol: The active compounds were formulated in 3:1 (vol:vol) water:DMSO with different concentrations of formulated compounds.
Bean leaf disks were placed into microtiterplates filled with 0.8% agar-agar and 2.5 ppm OPUS™. The leaf disks were sprayed with 2.5 μl of the test solution and 5 to 8 adult aphids were placed into the microtiter plates which were then closed and kept at 23±1° C. and 50±5% relative humidity under fluorescent light for 6 days. Mortality was assessed on the basis of vital, reproduced aphids. Aphid mortality and fecundity was then visually assessed.

[6] = system: Silverleaf whitefly (Bemisia argentifolii, adult); test: Silverleaf whitefly test on sprayed cotton plants; conditions: at 300 ppm; mortality assessed 3 days after treatment
Protocol: as §1
Cotton plants at the cotyledon stage (one plant per pot) were sprayed by an automated electrostatic plant sprayer equipped with an atomizing spray nozzle. The plants were dried in the sprayer fume hood and then removed from the sprayer. Each pot was placed into a plastic cup and 10 to 12 whitefly adults (approximately 3-5 days […]) were introduced. The insects were collected using an aspirator and 0.6 cm, nontoxic Tygon® tubing (R-3603) connected to a barrier pipette tip. The tip, containing the collected insects, was then gently inserted into the soil containing the treated plant, allowing insects to crawl out of the tip to reach the foliage for feeding. Cups were covered with a reusable screened lid (150-micron mesh polyester screen PeCap from Tetko, Inc.). Test plants were maintained in a growth room at 25° C. and 20-40% relative humidity for 3 days, avoiding direct exposure to fluorescent light (24 hour photoperiod) to prevent trapping of heat inside the cup. Mortality was assessed 3 days after treatment, compared to untreated control plants.

[7] = system: Green peach aphid (Myzus persicae); test: Green peach aphid spray test on bell pepper plants; conditions: at 300 ppm; aphid mortality determined after 5 days
Protocol: as §1
Bell pepper plants at the first true-leaf stage were infested prior to treatment by placing heavily infested leaves from the main colony on top of the treatment plants. Aphids were allowed to transfer overnight to accomplish an infestation of 30-50 aphids per plant and the host leaves were removed. The infested plants were then sprayed by an automated electrostatic plant sprayer equipped with an atomizing spray nozzle. The plants were dried in the sprayer fume hood, removed, and then maintained in a growth room under fluorescent lighting in a 24 hour photoperiod at 25° C. and 20-40% relative humidity. Aphid mortality on the treated plants, relative to mortality on untreated control plants, was determined after 5 days.

[8] = system: Boll weevil (Anthonomus grandis); test: Boll weevil insect diet microtiter plate test; conditions: at 2500 ppm; egg and larval mortality after 5 days

Measured: mortality in comparison with untreated controls

CCN(C(=O)c1cnn(C(C)CON=CC(C)OC)c1C)c1ccnnc1 (single isomer, unassigned) [I-4]
not listed: [8]
at least 75%: all other assays above

COC(C)C=NOCC(C)n1ncc(C(=O)N(C)c2ccnnc2)c1C (single isomer, unassigned) [I-5]
at least 75%: [2] | [3] | [5] | [6] | [7]

COC(C)C=NOCC(C)n1ncc(C(=O)Nc2ccnnc2)c1C (single isomer, unassigned) [I-6]
at least 75%: all assays above

CCC(C)=NOCC(C)n1ncc(C(=O)Nc2ccnnc2)c1C (single isomer, unassigned) [I-7]
at least 75%: [2] | [3] | [5] | [6] | [7]

CCC(C)=NOCC(C)n1ncc(C(=O)N(C)c2ccnnc2)c1C (single isomer, unassigned) [I-8]
at least 75%: [2] | [3] | [6] | [7]

CCN(C(=O)c1cnn(C(C)CON=C2CCCCC2)c1C)c1ccnnc1 (stereo not shown) [I-1]
at least 75%: [2] | [5]

Cc1c(C(=O)Nc2ccnnc2)cnn1C(C)CON=C1CCCCC1 (stereo not shown) [I-2]
at least 75%: [8]

Cc1c(C(=O)N(C)c2ccnnc2)cnn1C(C)CON=C1CCCCC1 (stereo not shown) [I-3]
at least 75%: [2] | [3] | [5] | [6] | [7]
